The other results are listed elsewhere or left out. Repeats are few or missing, and single values can be far off.
The compounds below were run on C6 (assay: cell mass (Coomassie absorbance) after combination of library compound with HMBA, relative to vehicle control (fraction); higher = more remaining cells (less growth inhibition)).

Row | Structure (SMILES) | cell mass
1 | Cc1ccccc1-n1c(Cn2ncc3c(N)ncnc32)nc2cccc(C)c2c1=O + CC(=O)NCCCCCCNC(C)=O [hexamethylene bisacetamide] | 0.495
2 | CC(=O)Nc1ccc(OC[C@](C)(O)C(=O)Nc2ccc([N+](=O)[O-])c(C(F)(F)F)c2)cc1 [Andarine] + CC(=O)NCCCCCCNC(C)=O [hexamethylene bisacetamide] | 0.635
3 | CN1CCCCC1Cn1cc(C(=O)c2cc([N+](=O)[O-])ccc2I)c2ccccc21 (stereo not given) + CC(=O)NCCCCCCNC(C)=O [hexamethylene bisacetamide] | 0.7
4 | CN1CCN(c2ccc([N+](=O)[O-])c3no[n+]([O-])c23)CC1 + CC(=O)NCCCCCCNC(C)=O [hexamethylene bisacetamide] | 0.615
5 | Cc1ccccc1-n1c(Cn2cnc3c(N)ncnc32)nc2cccc(C)c2c1=O + CC(=O)NCCCCCCNC(C)=O [hexamethylene bisacetamide] | 0.256
6 | CCN1CCN(C(=O)Cc2ccc(Nc3ncc(F)c(Nc4ccc(C(=O)Nc5ccccc5Cl)cc4)n3)cc2)CC1 [Aurora A Inhibitor I] + CC(=O)NCCCCCCNC(C)=O [hexamethylene bisacetamide] | 0.647
7 | CC1=C2C[C@H]3[C@@H](CC=C4C[C@@H](O)CC[C@@]43C)[C@@H]2CC[C@]12O[C@@H]1C[C@H](C)CN[C@H]1[C@H]2C [Cyclopamine] + CC(=O)NCCCCCCNC(C)=O [hexamethylene bisacetamide] | 0.544
8 | CC[C@@H](C(=O)[C@@H](C)[C@@H](O)[C@H](C)[C@@H]1O[C@@H]([C@@H](CC)C(=O)O)CC[C@@H]1C)[C@H]1O[C@]2(C=C[C@@H](O)[C@]3(CC[C@@](C)([C@H]4CC[C@](O)(CC)[C@H](C)O4)O3)O2)[C@H](C)C[C@@H]1C [Salinomycin] + CC(=O)NCCCCCCNC(C)=O [hexamethylene bisacetamide] | 0.0944
9 | C[C@](O)(COc1ccc(C#N)cc1)C(=O)Nc1ccc(C#N)c(C(F)(F)F)c1 [Ostarine(MK-2866)] + CC(=O)NCCCCCCNC(C)=O [hexamethylene bisacetamide] | 0.609
10 | C[C@]12CCC(=O)C(O)=C1CC[C@@H]1[C@@H]2CC[C@]2(C)C(=O)CC[C@@H]12 [Formestane] + CC(=O)NCCCCCCNC(C)=O [hexamethylene bisacetamide] | 0.649

— the supplement of paper PMC7889204
